No constants are given. Whether binding was seen depends on the method and setting. In cells and extracts the contact can be indirect. Some entries that bind do so weakly or less than the wild type.

This test addresses RIP3 (mouse) (mouse (endogenous in CIRI mice)), Q9QZL0. Briefly: co-IP; endogenous proteins from CIRI mice with or without NAC; antibody on Protein A/G magnetic beads, western blot. The note with it: remark: other sources report otherwise. On the technique in general: In western blotting, separated proteins are transferred to a membrane and probed.

B1: RIP1 (mouse), Q60855 1-656 (protein)
chain: MQPDMSLDNIKMASSDLLEKTDLDSGGFGKVSLCYHRSHGFVILKKVYTGPNRAEYNEVLLEEGKMMHRLRHSRVVKLLGIIIEEGNYSLVMEYMEKGNLMHVLKTQIDVPLSLKGRIIVEAIEGMCYLHDKGVIHKDLKPENILVDRDFHIKIADLGVASFKTWSKLTKEKDNKQKEVSSTTKKNNGGTLYYMAPEHLNDINAKPTEKSDVYSFGIVLWAIFAKKEPYENVICTEQFVICIKSGNRPNVEEILEYCPREIISLMERCWQAIPEDRPTFLGIEEEFRPFYLSHFEEYVEEDVASLKKEYPDQSPVLQRMFSLQHDCVPLPPSRSNSEQPGSLHSSQGLQMGPVEESWFSSSPEYPQDENDRSVQAKLQEEASYHAFGIFAEKQTKPQPRQNEAYNREEERKRRVSHDPFAQQRARENIKSAGARGHSDPSTTSRGIAVQQLSWPATQTVWNNGLYNQHGFGTTGTGVWYPPNLSQMYSTYKTPVPETNIPGSTPTMPYFSGPVADDLIKYTIFNSSGIQIGNHNYMDVGLNSQPPNNTCKEESTSRHQAIFDNTTSLTDEHLNPIRENLGRQWKNCARKLGFTESQIDEIDHDYERDGLKEKVYQMLQKWLMREGTKGATVGKLAQALHQCCRIDLLNHLIRASQS
B1: the binding entry is recorded as “binds”.

(Values after paper PMC9137164.)
